Test results reported in PMC9171067, “A High Throughput Cell-Based Screen Assay for LINE-1 ORF1p Expression Inhibitors Using the In-Cell Western Technique” (Frontiers in Pharmacology, 2022).

Test system: T-47D cells
Experiment: CCK-8 cell viability (CC50) in T-47D cells
Format: cell-based, human
Settings: CC50/EC50 in T-47D cells
Protocol: The 50% cytotoxic concentration (CC50) values of 5 drug leads were measured using normal […] cell line HUVEC and breast cancer cell line T-47D at 6 different inhibitor concentrations. HUVEC and T47-D cell lines in the logarithmic phase were reseeded into 96-well plates (Nest Inc.) at a density of 1×10^3 cells/well and the plates were incubated for up to 2 days. At the end of each experiment, cells were incubated with 10 µl of the CCK-8 reagent (Vazyme) at 37°C for 2 h. The optical density (OD) at 450 nm was measured by a microplate reader (PerkinElmer Inc.) according to the manufacturer’s instructions. The data are expressed as % of the control. The experiments were repeated at least three times. The 50% effective concentration (EC50) of 5 drugs were measured using breast cancer cell line T-47D and 6 different inhibitor concentrations.

c1csc(-c2ccc(-c3cccs3)s2)c1 [#2, 2,2':5′,2″-Terthiophene]
therapeutic index (TI): 2.95

C#C[C@]1(O)CC[C@H]2[C@@H]3CCc4cc(O)ccc4[C@H]3CC[C@@]21C [#3, Ethynyl estradiol]
therapeutic index (TI): 7.38
